Values of other authors, collected in patent US20060287248A1, “Asymmetric dosing methods” (Schering Corporation, priority 2005, published 2006).
Structures can show the parent of a compound that is named as a salt. At least one compound was matched to its structure with a doubt left.

Tested on: retinal neovascularization
Conditions: mice; cited from earlier work

Compound	development of retinal neovascularization
Cc1c(C)c2c(c(C)c1O)CCC(C)(COc1ccc(CC3SC(=O)NC3=O)cc1)O2 (centres unmarked) [troglitazone]	inhibit the development of retinal neovascularization
CN(CCOc1ccc(CC2SC(=O)NC2=O)cc1)c1ccccn1 (centres unmarked) [rosiglitazone maleate]	inhibit the development of retinal neovascularization
